Consider 1 molecule from publication PMC4741493.

By UniProt entry, the sequences of proteins in these tests, tags left out. Where a name states a change or a piece, a line headed by the entry shows the natural chain unless it says otherwise.
UniProt P35613: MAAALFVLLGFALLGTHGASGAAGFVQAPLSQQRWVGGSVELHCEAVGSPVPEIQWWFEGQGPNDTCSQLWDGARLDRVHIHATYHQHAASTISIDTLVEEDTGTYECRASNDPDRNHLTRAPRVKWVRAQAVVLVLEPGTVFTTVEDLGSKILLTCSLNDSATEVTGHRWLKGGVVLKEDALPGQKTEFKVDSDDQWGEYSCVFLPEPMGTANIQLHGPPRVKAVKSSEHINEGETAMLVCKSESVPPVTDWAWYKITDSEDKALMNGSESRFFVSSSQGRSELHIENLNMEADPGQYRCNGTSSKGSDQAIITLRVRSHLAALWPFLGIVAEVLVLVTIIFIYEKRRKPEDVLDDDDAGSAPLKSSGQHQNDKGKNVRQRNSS

Results are given in words; binding and its absence hold for the method and conditions named. In cells and extracts the contact can be indirect. For part of these data: A result given as binding can be weak or reduced; the word gives no strength.

Assay [1] has as its target CD147 (human (endogenous in HepG2)) (UniProt P35613). Description: co-IP; endogenous CD147 complexes from HepG2 cells treated with Tg (high [Ca^2+]i), 1% OG buffer lysate, protein A-agarose overnight at 4°C, blotted for CaMKP.
The target is the same in assay [2]. Briefly: condition: only cells treated with BAPTA-AM (low [Ca^2+]i); co-IP; endogenous CD147 complexes from HepG2 cells treated with BAPTA-AM (low [Ca^2+]i), 1% OG buffer lysate, protein A-agarose overnight at 4°C, blotted for CaMKP.
Assay [3] shares this target. Description: condition: only cells treated with Tg and the CaMKII inhibitor KN-93; co-IP; endogenous CD147 complexes from HepG2 cells treated with Tg and the CaMKII inhibitor KN-93 in combination, 1% OG buffer lysate, protein A-agarose overnight at 4°C, blotted for CaMKP.

B1: Ca^2+-dependent protein kinase phosphatase (CaMKP) (enzyme, UniProt P49593 1-454)
chain: MSSGAPQKSSPMASGAEETPGFLDTLLQDFPALLNPEDPLPWKAPGTVLSQEEVEGELAELAMGFLGSRKAPPPLAAALAHEAVSQLLQTDLSEFRKLPREEEEEEEDDDEEEKAPVTLLDAQSLAQSFFNRLWEVAGQWQKQVPLAARASQRQWLVSIHAIRNTRRKMEDRHVSLPSFNQLFGLSDPVNRAYFAVFDGHGGVDAARYAAVHVHTNAARQPELPTDPEGALREAFRRTDQMFLRKAKRERLQSGTTGVCALIAGATLHVAWLGDSQVILVQQGQVVKLMEPHRPERQDEKARIEALGGFVSHMDCWRVNGTLAVSRAIGDVFQKPYVSGEADAASRALTGSEDYLLLACDGFFDVVPHQEVVGLVQSHLTRQQGSGLRVAEELVAAARERGSHDNITVMVVFLRDPQELLEGGNQGEGDPQAEGRRQDLPSSLPEPETQAPPRS
Consider B1, for which the binding result in assay [1] is “binds”; in assay [2], “no binding”; in assay [3], “no binding”.
